The target in the experiment is T1, GST-tagged AtSOS1 C-terminus (aa978-1146) (Arabidopsis thaliana) (UniProt Q9LKW9).
T1 sequence: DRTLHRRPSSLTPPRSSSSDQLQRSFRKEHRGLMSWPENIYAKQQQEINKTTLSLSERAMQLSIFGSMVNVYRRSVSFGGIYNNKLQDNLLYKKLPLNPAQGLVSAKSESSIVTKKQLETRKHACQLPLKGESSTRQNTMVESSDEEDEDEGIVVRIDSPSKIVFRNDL
Put plainly: affinity purification with mass spectrometry; purified GST-SOS1 C-term (aa978-1146) coupled to Affi-gel10, incubated with a soluble protein extract from Arabidopsis leaves; washed with PBS, eluted with PBS containing 1% SDS, SDS-PAGE slices identified by mass spectrometry; GST alone as control column; only the target purified.

Protein sequences, listed by entry. Tags and fused reporters are not part of them.
UniProt P23686: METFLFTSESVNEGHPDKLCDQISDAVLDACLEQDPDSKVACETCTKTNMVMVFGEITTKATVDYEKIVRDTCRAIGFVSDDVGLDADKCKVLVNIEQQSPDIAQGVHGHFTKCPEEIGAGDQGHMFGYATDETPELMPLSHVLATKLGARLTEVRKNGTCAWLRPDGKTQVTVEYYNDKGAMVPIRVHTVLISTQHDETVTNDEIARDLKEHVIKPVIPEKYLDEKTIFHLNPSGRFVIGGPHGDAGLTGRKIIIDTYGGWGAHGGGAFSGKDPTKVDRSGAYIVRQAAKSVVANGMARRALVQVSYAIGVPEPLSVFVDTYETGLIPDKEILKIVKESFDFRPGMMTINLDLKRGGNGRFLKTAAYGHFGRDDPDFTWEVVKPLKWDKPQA
UniProt P25696: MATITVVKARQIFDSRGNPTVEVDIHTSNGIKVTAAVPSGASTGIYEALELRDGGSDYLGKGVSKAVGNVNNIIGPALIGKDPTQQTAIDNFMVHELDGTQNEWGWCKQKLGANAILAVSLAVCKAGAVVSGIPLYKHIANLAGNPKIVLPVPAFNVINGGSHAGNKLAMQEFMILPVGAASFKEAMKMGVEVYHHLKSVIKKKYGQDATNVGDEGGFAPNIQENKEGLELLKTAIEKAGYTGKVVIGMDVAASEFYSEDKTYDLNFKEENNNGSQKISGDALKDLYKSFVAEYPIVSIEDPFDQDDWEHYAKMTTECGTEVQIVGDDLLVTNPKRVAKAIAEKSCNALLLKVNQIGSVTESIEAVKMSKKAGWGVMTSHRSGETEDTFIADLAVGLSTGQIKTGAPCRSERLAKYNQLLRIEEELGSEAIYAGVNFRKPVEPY

No constants are given. Whether binding was seen depends on the method and setting. In cells and extracts the contact can be indirect. These calls come from enrichment with a bait or labelling near it, and not all partners need be listed. Sequences can lack the tags named with a protein.

As to “delta-1-pyrroline-5-carboxylate synthase (P5CS) (enzyme)”, the binding entry was “binds”.

On to “S-adenosylmethionine synthase1 (from UniProt P23686 1-393) (enzyme)”, for which the binding entry is on record as “binds”.

On to “enolase2 (from UniProt P25696 1-444) (enzyme)”, for which the binding entry is “binds”.

B1: 14-3-3 like protein isoform omega (ω) (protein, UniProt Q01525 1-259)
chain: MASGREEFVYMAKLAEQAERYEEMVEFMEKVSAAVDGDELTVEERNLLSVAYKNVIGARRASWRIISSIEQKEESRGNDDHVTAIREYRSKIETELSGICDGILKLLDSRLIPAAASGDSKVFYLKMKGDYHRYLAEFKTGQERKDAAEHTLAAYKSAQDIANAELAPTHPIRLGLALNFSVFYYEILNSPDRACNLAKQAFDEAIAELDTLGEESYKDSTLIMQLLRDNLTLWTSDMQDDAADEIKEAAAPKPTEEQQ
For B1, the binding result is “binds”.

B2: 14-3-3 like protein isoform upsilon (υ) (protein, UniProt P42645 1-268)
chain: MSSDSSREENVYLAKLAEQAERYEEMVEFMEKVAKTVETEELTVEERNLLSVAYKNVIGARRASWRIISSIEQKEDSRGNSDHVSIIKDYRGKIETELSKICDGILNLLEAHLIPAASLAESKVFYLKMKGDYHRYLAEFKTGAERKEAAESTLVAYKSAQDIALADLAPTHPIRLGLALNFSVFYYEILNSSDRACSLAKQAFDEAISELDTLGEESYKDSTLIMQLLRDNLTLWTSDLNDEAGDDIKEAPKEVQKVDEQAQPPPSQ
In the case of B2, the binding result is “binds”.

B3: 14-3-3 like protein isoform kappa (κ) (protein, UniProt P48348 1-248)
chain: MATTLSRDQYVYMAKLAEQAERYEEMVQFMEQLVSGATPAGELTVEERNLLSVAYKNVIGSLRAAWRIVSSIEQKEESRKNEEHVSLVKDYRSKVETELSSICSGILRLLDSHLIPSATASESKVFYLKMKGDYHRYLAEFKSGDERKTAAEDTMIAYKAAQDVAVADLAPTHPIRLGLALNFSVFYYEILNSSEKACSMAKQAFEEAIAELDTLGEESYKDSTLIMQLLRDNLTLWTSDMQEQMDEA
B3: the binding result is listed as “binds”.

B4: 14-3-3 like protein isoform phi (φ) (protein, UniProt P46077 1-267)
chain: MAAPPASSSAREEFVYLAKLAEQAERYEEMVEFMEKVAEAVDKDELTVEERNLLSVAYKNVIGARRASWRIISSIEQKEESRGNDDHVTTIRDYRSKIESELSKICDGILKLLDTRLVPASANGDSKVFYLKMKGDYHRYLAEFKTGQERKDAAEHTLTAYKAAQDIANAELAPTHPIRLGLALNFSVFYYEILNSPDRACNLAKQAFDEAIAELDTLGEESYKDSTLIMQLLRDNLTLWTSDMQDESPEEIKEAAAPKPAEEQKEI
On to B4, for which the binding entry was “binds”.

B5: adenosyl-homocysteinease2 (enzyme, UniProt Q9LK36 1-485)
chain: MALLVEKTSSGREYKVKDMSQADFGRLEIELAEVEMPGLVSCVTEFGPSQPLKGARITGSLHMTIQTAVLIETLTALGAEVRWCSCNIFSTQDHAAAAIARDSAAVFAWKGETLQEYWWCTERALDWGPGGGPDLIVDDGGDATLLIHEGVKAEEIFAKNGTFPDPTSTDNPEFQIVLSIIKDGLQVDPKKYHKMKERLVGVSEETTTGVKRLYQMQETGALLFPAINVNDSVTKSKFDNLYGCRHSLPDGLMRATDVMIAGKVAVICGYGDVGKGCAAAMKTAGARVIVTEIDPICALQALMEGLQVLTLEDVVSEADIFCTTTGNKDIIMVDHMRKMKNNAIVCNIGHFDNEIDMLGLETYPGVKRITIKPQTDRWVFPDTNSGIIVLAEGRLMNLGCATGHPSFVMSCSFTNQVIAQLELWNEKSSGKYEKKVYVLPKHLDEKVAALHLGKLGARLTKLTKDQSDYVSIPVEGPYKPVHYRY
With B5, the binding entry is “binds”.
